# Part of at least one peptide drawing is inferred or uncertain, most often the ends.
# What was measured:
# [1] = test system: MCF-7 cells; assay: Confocal imaging of intracellular thiols, MCF-7; type: cell-based; conditions: low integrin αvβ3, 6 h incubation
# [2] = Effect of ionic strength (NaCl) on emission; type: physicochemical; conditions: NaCl 0 to 960 mM
# Text: We next studied the optical properties of our prodrug. The UV-vis absorption spectra of TPS-CH2N3 in THF and TPS-DEVD-Pt-cRGD in DMSO/PIPES (v/v=1/199) buffer were obtained. Both have similar absorption profiles with an obvious absorbance in the 320-440 nm range with a little blue shift after the modification of the AIE fluorogen. It is known that AIE fluorogen is non-fluorescent in good solvents but emits intensely in solid or as aggregates in poor solvents. […] As biosensing is often conducted in buffers, it is important to study the effect of ionic strength on the emission behavior of the prodrug. The experiments were performed with addition of sodium chloride into an aqueous solution of TPS-DEVD-Pt-cRGD (10 μM). […] TPS-DEVD-Pt-cRGD and its reduction product maintain an “off” state in the complex environment and thus have great potential to serve as a specific light-up apoptosis sensor for drug effect study with minimum background interference.
# The photoluminescence (PL) spectra of TPE-CH2NH2 and TPE-SS-D5-cRGD in DMSO and phosphate buffered saline (PBS, pH=7.4) mixtures (v/v=1/199) are shown in FIG. 13A. […] [12] The TPE-SS-D5-cRGD probe is almost non-fluorescent in the same medium (Φ=0.001), due to the easy intramolecular rotations of the TPE phenyl rings in aqueous media. […]
# [3] = Fluorescence response of the probe to free thiol GSH; conditions: 10 μM probe, GSH 1 mM
# [4] = test system: U87-MG cells; assay: Confocal imaging of intracellular thiols, U87-MG; type: cell-based, human
# Description: To explore the capability of using TPE-SS-D5-cRGD as a specific bioprobe for monitoring intracellular thiol levels in cancer cells, the probe is incubated with U87-MG human glioblastoma and MCF-7 breast cancer cell lines. U87-MG cells with overexpressed integrin αvβ3 on cellular membrane was chosen as integrin-positive cancer cell, while breast cancer cell MCF-7 with a low level of integrin αvβ3 expression was used as the negative control. […] It should be noted that the probe could also be used for live cell imaging. To provide further evidence for thiol-induced disulfide bond cleavage as the trigger of fluorescence turn-on, the U87-MG cells were also pretreated with buthionine sulfoximine (BSO) before incubation with TPE-SS-D5-cRGD. BSO is an inhibitor of g-glutamylcysteine synthetase which can inhibit the cells from synthesizing GSH. The fluorescence of TPE-SS-D5-cRGD treated U87-MG cells decreases as the concentration of BSO increases from 25 to 100 μM.
# [5] = Fluorescence quantum yield, quinoline sulfate as standard; type: physicochemical; conditions: DMSO/PBS pH 7.4 v/v=1/199
smiles,measurement,setting,value
N=C(N)NCCC[C@@H]1NC(=O)[C@H](CCCCNC(=O)[C@H](CC(=O)O)NC(=O)[C@H](CC(=O)O)NC(=O)[C@H](CC(=O)O)NC(=O)[C@H](CC(=O)O)NC(=O)[C@H](CC(=O)O)NC(=O)CCSSCCC(=O)NCc2ccc(C(=C(c3ccccc3)c3ccccc3)c3ccccc3)cc2)NC(=O)[C@@H](Cc2ccccc2)NC(=O)[C@H](CC(=O)O)NC(=O)CNC1=O [TPE-SS-D5-cRGD],cell fluorescence,[1],weak fluorescence signal
same,change of fluorescence with NaCl,[2],no response
same,time to maximum emission with GSH,[3],≤ 3 h
same,emission intensity increase over intrinsic emission with GSH,"[3]; DMSO/PBS v/v=1/199, maximum",68 fold
same,cell fluorescence after pretreatment with free cRGD,[4],weak fluorescence
same,cell fluorescence,[4]; integrin αvβ3 positive cells,strong blue fluorescence
same,quantum yield (Φ),[5],0.001
